Results taken from publication PMC3348883.
Positions count from the first letter of the chain named. These are yes or no findings as the source states them, for the method shown. Binding seen in cells or lysates may run through a third protein. Some binding calls cover weakened binding; strength is not graded here. For part of these data: Tags and fused reporters may be left off the sequences shown.

Experiments:
[1] = target: T1, MST2 (mammalian Ste20-like kinase 2), wild type, FLAG- or GFP-tagged (human) (UniProt Q13188); test: co-IP; HEK 293T cells co-transfected; lysates (20 mM Tris HCl pH 7.5, 150 mM NaCl, 10% glycerol, 1% Nonidet P-40) immunoprecipitated with anti-FLAG antibody, blotted with anti-GFP; with or without co-expressed Myc-c-Abl (MST2 with MST2) or 10 µM STI571 for 1 hour (Raf-1 with MST2)
T1 sequence: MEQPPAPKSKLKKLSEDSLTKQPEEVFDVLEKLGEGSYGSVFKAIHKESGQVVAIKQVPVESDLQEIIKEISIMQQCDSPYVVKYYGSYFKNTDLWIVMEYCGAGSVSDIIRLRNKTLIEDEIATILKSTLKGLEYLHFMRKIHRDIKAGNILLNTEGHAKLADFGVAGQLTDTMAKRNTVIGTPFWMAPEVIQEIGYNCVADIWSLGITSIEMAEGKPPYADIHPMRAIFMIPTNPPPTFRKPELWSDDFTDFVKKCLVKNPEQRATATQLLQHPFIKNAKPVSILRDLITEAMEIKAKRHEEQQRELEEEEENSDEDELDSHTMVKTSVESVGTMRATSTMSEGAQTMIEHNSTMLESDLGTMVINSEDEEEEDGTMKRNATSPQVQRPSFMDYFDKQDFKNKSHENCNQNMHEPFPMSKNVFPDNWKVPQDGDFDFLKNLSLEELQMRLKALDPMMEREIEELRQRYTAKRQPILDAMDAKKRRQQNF

FLAG-MST2-Y81F (human) = target: T2, FLAG-MST2-Y81F (human) (UniProt Q13188); test: as above
T2 sequence: T1 sequence with Y81F

[2] = target: T3, MST2, endogenous in Neuro2A cells (mouse (endogenous in Neuro2A)) (UniProt Q9JI10); test: co-IP; endogenous proteins; MST2 immunoprecipitates from Neuro2A cells treated with or without STI571, blotted with anti-Raf-1 antibody
T3 sequence: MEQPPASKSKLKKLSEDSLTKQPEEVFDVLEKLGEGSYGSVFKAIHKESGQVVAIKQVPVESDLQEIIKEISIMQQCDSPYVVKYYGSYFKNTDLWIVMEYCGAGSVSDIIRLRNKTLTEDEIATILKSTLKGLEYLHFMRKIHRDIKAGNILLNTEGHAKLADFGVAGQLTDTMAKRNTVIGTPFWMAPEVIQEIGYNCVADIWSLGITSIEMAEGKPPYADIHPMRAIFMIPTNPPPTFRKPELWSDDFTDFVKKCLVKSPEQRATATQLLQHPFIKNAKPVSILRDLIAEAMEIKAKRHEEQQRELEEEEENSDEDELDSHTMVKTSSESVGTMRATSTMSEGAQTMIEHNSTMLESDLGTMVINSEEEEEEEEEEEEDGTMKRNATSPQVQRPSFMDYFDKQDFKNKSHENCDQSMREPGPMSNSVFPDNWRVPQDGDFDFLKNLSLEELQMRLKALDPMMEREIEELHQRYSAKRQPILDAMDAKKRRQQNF

Substance | binding [1] | binding (FLAG-MST2-Y81F (human)) | binding [2]
GFP-Raf-1 (from UniProt P04049 1-648) (enzyme) | binds | binds | 
Raf-1, endogenous in Neuro2A cells (from UniProt Q99N57 1-648) (enzyme) |  |  | binds
